The list shows a part of the results.

By UniProt entry, the sequences of proteins in these tests, tags left out.
UniProt Q0JBA9, entry or part of it: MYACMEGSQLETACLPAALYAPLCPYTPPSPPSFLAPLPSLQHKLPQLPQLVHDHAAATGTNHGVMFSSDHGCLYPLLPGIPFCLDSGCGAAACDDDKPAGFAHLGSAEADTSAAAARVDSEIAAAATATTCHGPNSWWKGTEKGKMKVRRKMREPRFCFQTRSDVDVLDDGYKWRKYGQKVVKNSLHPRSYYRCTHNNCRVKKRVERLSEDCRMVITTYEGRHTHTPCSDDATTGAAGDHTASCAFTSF

This experiment deals with OsWRKY34 (Oryza sativa, UniProt Q0JBA9 1-250). The experiment can be described thus: protein-binding microarray (RPBM); PBS, 2% BSA, 51.3 ng/ul salmon testes DNA, 50 uM zinc acetate, 200 nM TF, 25 C, 1 h; high values mean tight binding. The note with it: protein: recombinant; tags: N-terminal polyhistidine and DsRed monomer fusion (pET32a); label: CyDye5-dUTP incorporated in the synthesized complementary strand; 3' TTTTT single-stranded linker to array surface; dsDNA, one strand shown. In short, it runs like this: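 The binding signal is fluorescence intensity per array feature (arbitrary units). Readings came from an Axon 4000B scanner after a washed, 2% BSA-blocked, double-stranded custom Agilent array had been incubated for 1 h at 25 °C with 200 nM protein and 50 µM zinc acetate. The protein was a Ni–NTA-purified transcription factor fused N-terminally to polyhistidine and DsRed, expressed in E. coli BL21-CodonPlus.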
“GTACTATTTTTGTGATTATTTTTTTCTGCCGTTCAAACCACGGAGTCACCTAGTGCAG”: the binding signal is 8040 fluorescence intensity (a.u.). The value for “ACCACCTTGCTCTTCCATCCCTAGCCACTTGGTATAATTGCGGAGTCACCTAGTGCAG” was 9870 fluorescence intensity (a.u.); that for “TTTTTTTCCTCTTTTTTAACGAGTTTACTCCTGTGACTCTCGGAGTCACCTAGTGCAG” was 9000 fluorescence intensity (a.u.); that for “TTGCGTGTGTTTTTGTTTTTTTTAAAGCCCACTTGAATCTCGGAGTCACCTAGTGCAG” was 8460 fluorescence intensity (a.u.). As to “TTGTCTGTTTATTCCGCTCAAGACTTTATTCAGTAGAATACGGAGTCACCTAGTGCAG”, the binding signal was 8630 fluorescence intensity (a.u.). The value for “TTCTTTTGTTTGTCATATCTGTTTTAGCTGTAGTGTGTTTCGGAGTCACCTAGTGCAG” was 11600 fluorescence intensity (a.u.). Under “TCTCAGGTTTCTGCTTTCCTCTTGCACTGTCCGAGCTTATCGGAGTCACCTAGTGCAG” stands 9740 fluorescence intensity (a.u.); under “GGTTCCTGTTGAATCATCGGTCCGGTCTGGTTTTCTAGCTCGGAGTCACCTAGTGCAG”, 8350 fluorescence intensity (a.u.). The value for “ACATTTTTTTCCCCGGTGACCACACTATATTCCTGGTCCACGGAGTCACCTAGTGCAG” was 9260 fluorescence intensity (a.u.). In the case of “TTAGCGATAGACCTCCTCATCTACATCTTCTCTCGCTATCCGGAGTCACCTAGTGCAG”, the binding signal is 10500 fluorescence intensity (a.u.).

Turning to “ACCCGGCTCACATCACATCGCCTATATAGGGCCTTCTAGTCGGAGTCACCTAGTGCAG”, the binding signal was 8570 fluorescence intensity (a.u.). The value for “GACGAACGGTCAAACATGTTTAAAAAAGTCAACGGCGTCACGGAGTCACCTAGTGCAG” was 13500 fluorescence intensity (a.u.); that for “ACAATCTTTTGTTGCCCATTCATCTGGGTTTTCTTCTGCTCGGAGTCACCTAGTGCAG” was 11400 fluorescence intensity (a.u.). Under “TTTGTGGGTTTTTTTGGCTGCTTCCATTTCGCAATCCACTCGGAGTCACCTAGTGCAG” stands 13100 fluorescence intensity (a.u.). The value for “CGACTTGTTGCCTCAAACAATTCCTGGTTATAAAACACCACGGAGTCACCTAGTGCAG” was 35500 fluorescence intensity (a.u.); that for “TATATTGGTGGTATTTTTAACATTTATTTTTACATATGTACGGAGTCACCTAGTGCAG” was 10100 fluorescence intensity (a.u.). Turning to “AAACTTATGCATAAAATATTTTCCTTGTCTCCTCAATCTTCGGAGTCACCTAGTGCAG”, the binding signal is 10700 fluorescence intensity (a.u.). Under “ATGTGCCTTTGTCTCTGTTTTTCTAGCGACCATTTTTAGACGGAGTCACCTAGTGCAG” stands 8560 fluorescence intensity (a.u.); under “AGACTCGGTTTCTAATTAAACATTTGCATACTTGTTTGTTCGGAGTCACCTAGTGCAG”, 9160 fluorescence intensity (a.u.); under “GCGCGGTGGTGGTGGTGGTGGTTGCTGTGGTAGCGAGGGTCGGAGTCACCTAGTGCAG”, 13100 fluorescence intensity (a.u.).

Consider “TCACATCATTTTTCATACTAGGTGACAGCTTATTTAATACCGGAGTCACCTAGTGCAG”, for which the binding signal is 8420 fluorescence intensity (a.u.). Under “CACACACCTTTTTAATCCCGCCATCACCGCCTATCCCACGCGGAGTCACCTAGTGCAG” stands 8700 fluorescence intensity (a.u.); under “ATTGGACTCGTGGAAATCTTTCCATCCCGCTGCCTAGCTTCGGAGTCACCTAGTGCAG”, 9020 fluorescence intensity (a.u.).

For the origin of these results see PMC7819943, “Rice protein-binding microarrays: a tool to detect cis-acting elements near promoter regions in rice”.
